{"source": "PubChem BioAssay AID1224830 (NIAID, 2016)", "purpose": "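Host factors that control LPS-induced TNF expression in human macrophages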 (primary screen)", "cells": "human THP-1 monocytic leukaemia cells, TNF dual-luciferase reporter clone, PMA-differentiated to macrophage-like cells", "reagents": "siRNA pool against human genes, 50 nM", "timing": "LPS for 4 h, given about 3 days after siRNA transfection", "challenge": "bacterial LPS (TLR4 ligand), 10 ng/ml", "read-out": "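Ratio of firefly to renilla light, scaled to the plate median and expressed as a robust z-score per replicate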", "direction": "TNF reporter robust z-score: higher = stronger TNF reporter response to LPS", "active means": "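Each well counts as active if its z-score is over 2.8 or under -1.5; controls are left without a call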", "note": "In all, the deposit lists about 18,000 reagents; shown is a random part of them. About 2,900 of all reagents (16%) were called active. 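Calls are made per well; low scores hint the gene aids the LPS response, high scores that it dampens it.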 Repeated entries: four replicate wells of each siRNA pool. No sequences are given here."}
{"gene knocked down": "ELAVL1", "TNF reporter robust z-score": 0.28, "Outcome": "inactive"}
{"gene knocked down": "ELAVL1", "TNF reporter robust z-score": 0.16, "Outcome": "inactive"}
{"gene knocked down": "ELAVL1", "TNF reporter robust z-score": 0.14, "Outcome": "inactive"}
{"gene knocked down": "ELAVL1", "TNF reporter robust z-score": 0.21, "Outcome": "inactive"}
{"gene knocked down": "RBM22", "TNF reporter robust z-score": -0.04, "Outcome": "inactive"}
{"gene knocked down": "RBM22", "TNF reporter robust z-score": -0.22, "Outcome": "inactive"}
{"gene knocked down": "RBM22", "TNF reporter robust z-score": 0.66, "Outcome": "inactive"}
{"gene knocked down": "RBM22", "TNF reporter robust z-score": 0.74, "Outcome": "inactive"}
{"gene knocked down": "FBXO7", "TNF reporter robust z-score": 0.92, "Outcome": "inactive"}
{"gene knocked down": "FBXO7", "TNF reporter robust z-score": -0.27, "Outcome": "inactive"}
{"gene knocked down": "FBXO7", "TNF reporter robust z-score": 0.26, "Outcome": "inactive"}
{"gene knocked down": "FBXO7", "TNF reporter robust z-score": 0.39, "Outcome": "inactive"}
{"gene knocked down": "PRP4K", "TNF reporter robust z-score": 0.35, "Outcome": "inactive"}
{"gene knocked down": "PRP4K", "TNF reporter robust z-score": 0.24, "Outcome": "inactive"}
{"gene knocked down": "PRP4K", "TNF reporter robust z-score": 1.87, "Outcome": "inactive"}
{"gene knocked down": "PRP4K", "TNF reporter robust z-score": 2.21, "Outcome": "inactive"}
{"gene knocked down": "GDF15", "TNF reporter robust z-score": -0.17, "Outcome": "inactive"}
{"gene knocked down": "GDF15", "TNF reporter robust z-score": 0.37, "Outcome": "inactive"}
{"gene knocked down": "GDF15", "TNF reporter robust z-score": 0.04, "Outcome": "inactive"}
{"gene knocked down": "GDF15", "TNF reporter robust z-score": -0.57, "Outcome": "inactive"}
{"gene knocked down": "SSNA1", "TNF reporter robust z-score": 1.77, "Outcome": "inactive"}
{"gene knocked down": "SSNA1", "TNF reporter robust z-score": 0.42, "Outcome": "inactive"}
{"gene knocked down": "SSNA1", "TNF reporter robust z-score": 0.49, "Outcome": "inactive"}
{"gene knocked down": "SSNA1", "TNF reporter robust z-score": 0.7, "Outcome": "inactive"}
{"gene knocked down": "ZNF441", "TNF reporter robust z-score": -0.6, "Outcome": "inactive"}
{"gene knocked down": "ZNF441", "TNF reporter robust z-score": -0.42, "Outcome": "inactive"}
{"gene knocked down": "ZNF441", "TNF reporter robust z-score": -0.63, "Outcome": "inactive"}
{"gene knocked down": "ZNF441", "TNF reporter robust z-score": 2.27, "Outcome": "inactive"}
{"gene knocked down": "PTK7", "TNF reporter robust z-score": 0.2, "Outcome": "inactive"}
{"gene knocked down": "PTK7", "TNF reporter robust z-score": 0.24, "Outcome": "inactive"}
{"gene knocked down": "PTK7", "TNF reporter robust z-score": 0.02, "Outcome": "inactive"}
{"gene knocked down": "PTK7", "TNF reporter robust z-score": 1.07, "Outcome": "inactive"}

Sorted by “TNF reporter robust z-score” (descending): some entries from above.
{"gene knocked down": "ZNF441", "TNF reporter robust z-score": 2.27, "Outcome": "inactive"}
{"gene knocked down": "SSNA1", "TNF reporter robust z-score": 0.7, "Outcome": "inactive"}
{"gene knocked down": "ZNF441", "TNF reporter robust z-score": -0.42, "Outcome": "inactive"}
{"gene knocked down": "ZNF441", "TNF reporter robust z-score": -0.6, "Outcome": "inactive"}
{"gene knocked down": "ZNF441", "TNF reporter robust z-score": -0.63, "Outcome": "inactive"}

More reagents follow.
{"gene knocked down": "ARRDC1", "TNF reporter robust z-score": 1.4, "Outcome": "inactive"}
{"gene knocked down": "ARRDC1", "TNF reporter robust z-score": 1.32, "Outcome": "inactive"}
{"gene knocked down": "ARRDC1", "TNF reporter robust z-score": 2.9, "Outcome": "active"}
{"gene knocked down": "ARRDC1", "TNF reporter robust z-score": 0.44, "Outcome": "inactive"}
{"gene knocked down": "C1QTNF5", "TNF reporter robust z-score": -1.6, "Outcome": "active"}
{"gene knocked down": "C1QTNF5", "TNF reporter robust z-score": -1.12, "Outcome": "inactive"}
{"gene knocked down": "C1QTNF5", "TNF reporter robust z-score": -1.02, "Outcome": "inactive"}
{"gene knocked down": "C1QTNF5", "TNF reporter robust z-score": -0.38, "Outcome": "inactive"}
{"gene knocked down": "NFRKB", "TNF reporter robust z-score": 1.17, "Outcome": "inactive"}
{"gene knocked down": "NFRKB", "TNF reporter robust z-score": 1.56, "Outcome": "inactive"}
{"gene knocked down": "NFRKB", "TNF reporter robust z-score": -0.36, "Outcome": "inactive"}
{"gene knocked down": "NFRKB", "TNF reporter robust z-score": 1.23, "Outcome": "inactive"}
{"gene knocked down": "SELENOW", "TNF reporter robust z-score": -0.92, "Outcome": "inactive"}
{"gene knocked down": "SELENOW", "TNF reporter robust z-score": -0.4, "Outcome": "inactive"}
{"gene knocked down": "SELENOW", "TNF reporter robust z-score": -0.58, "Outcome": "inactive"}
{"gene knocked down": "SELENOW", "TNF reporter robust z-score": 0.28, "Outcome": "inactive"}
{"gene knocked down": "ASZ1", "TNF reporter robust z-score": -0.62, "Outcome": "inactive"}
{"gene knocked down": "ASZ1", "TNF reporter robust z-score": -0.34, "Outcome": "inactive"}
{"gene knocked down": "ASZ1", "TNF reporter robust z-score": 0.12, "Outcome": "inactive"}
{"gene knocked down": "ASZ1", "TNF reporter robust z-score": 0.06, "Outcome": "inactive"}
{"gene knocked down": "DIPK1C", "TNF reporter robust z-score": -0.91, "Outcome": "inactive"}
{"gene knocked down": "DIPK1C", "TNF reporter robust z-score": -0.31, "Outcome": "inactive"}
{"gene knocked down": "DIPK1C", "TNF reporter robust z-score": -0.93, "Outcome": "inactive"}
{"gene knocked down": "DIPK1C", "TNF reporter robust z-score": -0.75, "Outcome": "inactive"}
{"gene knocked down": "SIK3", "TNF reporter robust z-score": 0.4, "Outcome": "inactive"}
{"gene knocked down": "SIK3", "TNF reporter robust z-score": 0.14, "Outcome": "inactive"}
{"gene knocked down": "SIK3", "TNF reporter robust z-score": -0.41, "Outcome": "inactive"}
{"gene knocked down": "SIK3", "TNF reporter robust z-score": 0.96, "Outcome": "inactive"}
